Test results published in PubChem BioAssay AID2685 (National Center for Advancing Translational Sciences (NCATS), 2010).
Hit rate of the full screen: of about 320,000 compounds, about 2,100 (0.66%) were called active. This list was built around the results that the source calls inconclusive (neither active nor inactive); the mix of calls is not that of the screen. Calls follow the shape of the dose curve; as a rule, active = well fitted inhibition curve with a large enough effect in the signal ratio, with a control signal flat (not every such curve was filed as active); inconclusive = small, poorly fitted or top-dose-only effect, or effect the other way, or a change in a side signal; inactive = flat fitted curve, though single readings scatter; the % refers to the signal ratio. Potencies of inconclusive entries are doubtful fits and often do not repeat.

Experiment: qHTS Assay for Lipid Storage Modulators in Drosophila S3 Cells
Conditions: BODIPY lipid droplet fluorescence, 18-24 h, cells fed with added oleic acid; lipid storage change, negative = inhibition: at 46.1 µM (top of the series) unless noted
Summary of the method: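 Laser-scanning cytometry quantifies lipid droplet accumulation (500–530 nm total intensity; droplet/cell object ratio) in oleic acid-fed (400 uM added) Drosophila S3 cells treated with a concentration series. 20 uM Triacsin C defined 100% inhibition.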
% is scaled to controls: 0 for no effect and ±100 for the full control effect; potency is read from the fitted curve at half-maximal effect.

SMILES | Potency | lipid storage change, negative = inhibition | outcome
Cc1cccc(N(CC(=O)NC2CC3CCC2C3)S(=O)(=O)c2ccccc2)c1 (stereo not given) | active: 20600 nM | – | –
Cc1cc2c(cn1)C(CCC#N)(CCC#N)c1ccccc1-2 | – | inconclusive: 14.8% | –
CCN1CCN(C(=O)CN2C(=O)c3ccccc3S2(=O)=O)CC1 | – | inconclusive: 33% [activator] [at 0.0737 µM] | –
CN1CCN(c2ccc(NC(=O)c3ccc(C(F)(F)F)cc3)cn2)CC1 | – | inconclusive: 17.7% | –
Oc1c(Br)cc(Cl)cc1C=Nc1ccccc1Br | – | inconclusive: -3.7% | –
COc1ccc(-c2nnn(CC(=O)N(CCN3CCOCC3)C(C(=O)NC3CCCCC3)c3ccco3)n2)cc1 (stereo not given) | – | inconclusive: 6.12% | –
O=C(Nc1ccnc(-c2cccnc2)n1)c1ccccc1Cl | – | inconclusive: 51.2% | –
CCN1CCN(C(C(=O)NC2CCCC2)c2cc3c(cc2[N+](=O)[O-])OCO3)CC1 (stereo not given) | inconclusive: 731 nM [activator, single point] | – | –
COc1ccc(C(=O)NCC(=O)OCC(=O)N2CCC(C)CC2)cc1OC | – | inconclusive: 5.29% | –
COCC1CCCN(Cc2nc(-c3ccc4c(c3)OCO4)no2)C1 (stereo not given) | – | inconclusive: 17.3% | –
COC(=O)CN1C(=O)[C@H]2[C@@H](/C=C/c3ccccc3)N3C(=O)CN(Cc4ccccc4)C(=O)[C@@]3(C)[C@H]2C1=O | – | inconclusive: 44.5% | –
CCOc1ccccc1NC(=O)CSc1nnc(CNC(=O)c2c(F)cccc2Cl)o1 | – | inconclusive: 78.8% | –
O=c1c2cc(Br)ccc2[nH]c(=S)n1Cc1ccccc1 | – | inactive: 48.1% | –
Cc1ccc(SCc2cn3cccnc3n2)cc1 | – | inconclusive: -51.3% | –
COc1ccc(CNC(=O)[C@H](C)N2C(=O)N3CCc4c([nH]c5ccc(OC)cc45)[C@@]3(C)C2=O)cc1 | – | inconclusive: -33.4% | –
COc1cccc(N2CC(C(=O)Nc3nnc(SCC(=O)Nc4cc(C)on4)s3)CC2=O)c1 (stereo not given) | – | inconclusive: -13.6% | –
COc1cccc(C(=O)N(CN2CCCC2=O)c2ccccc2OC)c1 | – | inconclusive: 2.26% | –
COc1ccccc1CNC(=O)COC(=O)c1ccc([N+](=O)[O-])o1 | inconclusive: 651 nM [falling, single point] | – | –
O=C(NCc1ccccc1)c1ccc(NC(=O)C2CCCO2)cc1 (stereo not given) | inconclusive: 580 nM [falling, single point] | – | –
O=c1[nH]c(C2CCN(S(=O)(=O)c3ccccc3)CC2)nc2c1nnn2Cc1cccc(Cl)c1 | – | – | inactive [at 46.1 µM]
COc1ccccc1OCCNC(=O)c1ccc(C)o1 | – | inconclusive: 0.0688% | –
COc1cccc(NC(=O)NCc2ccc(F)cc2)c1 | inconclusive: 6510 nM [rising, single point] | – | –
CCSc1nsc(SCC)c1C(N)=O | – | inconclusive: 1.31% | –
COc1ccc(NC(=O)CC(NC(C)c2ccccc2)C(=O)O)cc1 (stereo not given) | – | inconclusive: -22.2% | –
Cc1cccc(N(CC(N)=O)C2SC(=O)NC2=O)c1 (stereo not given) | – | inactive: -0.47% | –
COc1ccc(N2CCN(C(=O)CN(c3ccc(Br)cc3)S(C)(=O)=O)CC2)cc1 | – | inconclusive: 11.8% | –
CCN(Cc1ccccc1)C(=O)c1oc2ccc(S(=O)(=O)N3CCOCC3)cc2c1C | inconclusive: 13000 nM [cytotoxic, partial curve] | – | –

Part of the list above, in CSV form.
SMILES,Potency,"lipid storage change, negative = inhibition",outcome
COc1ccc(C(=O)NCC(=O)OCC(=O)N2CCC(C)CC2)cc1OC,–,inconclusive: 5.29%,–
COCC1CCCN(Cc2nc(-c3ccc4c(c3)OCO4)no2)C1 (stereo not given),–,inconclusive: 17.3%,–
COC(=O)CN1C(=O)[C@H]2[C@@H](/C=C/c3ccccc3)N3C(=O)CN(Cc4ccccc4)C(=O)[C@@]3(C)[C@H]2C1=O,–,inconclusive: 44.5%,–
CCOc1ccccc1NC(=O)CSc1nnc(CNC(=O)c2c(F)cccc2Cl)o1,–,inconclusive: 78.8%,–

Next entries

SMILES | Potency | lipid storage change, negative = inhibition | outcome
COc1ccc(CCn2nnnc2C(CC(C)C)N2CCC(C(N)=O)CC2)cc1OC (stereo not given) | – | inconclusive: -32.2% | –
O=C(OCc1ccccc1Cl)c1cccnc1Cl | – | inconclusive: -153% | –
COc1ccc(OC)c(NC(=O)NC2CCCCCCC2)c1 | inconclusive: 2590 nM [activator, full curve] | – | –
CCN(CC(=O)Nc1ccc(NC(C)=O)cc1)C(=O)c1ccc(N2CCCC2)c([N+](=O)[O-])c1 | – | inconclusive: -100% | –
O=C(OCC(=O)N1c2ccccc2Sc2ccccc21)c1ccc[n+]([O-])c1 | – | inconclusive: -25.8% | –
COc1ccc(Oc2cc(C)c3ccccc3n2)cc1 | – | inconclusive: 26.1% | –
COc1ccc(CCC2(C)NC(=O)NC2=O)cc1 (stereo not given) | – | inconclusive: 19% | –
O=C(c1cccc(Cl)c1)N1CCN(S(=O)(=O)c2ccc(Cl)s2)CC1 | – | inconclusive: 15.1% | –
O=C(Nc1c(C(=O)Nc2cccc3ccccc23)cnn1-c1ccccc1)c1ccco1 | – | inconclusive: -14.2% | –
Cc1cc(-c2n[nH]c(=S)n2/N=C/c2cccs2)n[nH]1 | inconclusive: 23.1 nM [activator, full curve] | – | –
CC1CCN(S(=O)(=O)c2ccc(NC(=O)[C@@H]3CCCC[C@@H]3C(=O)O)cc2)CC1 | – | inconclusive: 43.6% | –
CC(C)C(C)(C#N)NC(=O)CSc1nnc(-c2ccccc2)o1 (stereo not given) | – | inconclusive: 3.7% | –
Cc1ccnc(NC(=O)Nc2ccc3c(c2)N(C)C(=O)CS3)c1 | – | inconclusive: -42.4% | –
O=C(c1ccco1)N1CCC(c2nc(-c3ccccc3Cl)no2)CC1 | – | inconclusive: 99.7% | –
COc1ccc(Br)c(C(=O)N2CCN(S(=O)(=O)/C=C/c3ccccc3)CC2)c1 | – | inconclusive: -3.94% | –
CC(C)CN(CC(C)C)C(=O)c1cccc(S(=O)(=O)N2CCc3ccccc32)c1 | – | inconclusive: 21.8% | –
CN1C(=O)c2ccc(NC(=O)c3c(C(=O)O)cccc3[N+](=O)[O-])cc2C1=O | – | inconclusive: 32.4% | –
CCOC(=O)NC(C(Cl)(Cl)Cl)S(=O)(=O)c1ccccc1 (stereo not given) | inconclusive: 517 nM [activator, single point] | – | –
O=C(NCCCN1CCOCC1)NC1CCCCC1 | – | inconclusive: -10.4% | –
COc1ccc(/C=N/NC(=O)CNC(=O)c2ccc(S(=O)(=O)N3CCOCC3)cc2)c(OC)c1 | – | inconclusive: 40.6% | –
Cc1cc(C)c(C)c(N=Nc2nc3ccccc3n2C)c1C | inconclusive: 29100 nM [cytotoxic, single point] | – | –
Cc1ccc(C(=O)NCCSC(C)(C)C)cc1 | – | inconclusive: -4.35% | –
O=C(Nc1cccc(C(F)(F)F)c1)C1CCN(S(=O)(=O)c2cccnc2)CC1 | – | inconclusive: 118% | –
O=C(O)c1cccc(Oc2ccccc2[N+](=O)[O-])c1 | – | inactive: 9.92% | –
COCC(C)NC(=O)c1ccccc1[N+](=O)[O-] (stereo not given) | – | inconclusive: 4.88% | –
O=C(CN1C(=O)NC(Cc2c[nH]c3ccccc23)C1=O)Nc1cccc(S(=O)(=O)N2CCCC2)c1 (stereo not given) | – | inconclusive: -6.52% | –
CN(C)c1nc(N)nc(-c2ccco2)n1 | – | inconclusive: 15.4% | –

SMILES | Potency | lipid storage change, negative = inhibition | outcome
CCOC(=O)C1=C(C)NC(=O)NC1c1ccccc1Cl (stereo not given) | – | inconclusive: 23.7% | –
O=C(NCc1ccco1)c1ccc(Br)c(S(=O)(=O)N2CCCCC2)c1 | – | inconclusive: 23.8% | –
Cc1ccc(S(=O)(=O)Cc2ccc(C(=O)NCCc3ccccc3)o2)cc1 | – | inconclusive: 104% | –
Cc1ccc2nc(CSc3nnc(-c4ccncc4)n3C)cc(=O)n2c1 | – | inconclusive: -22.4% | –
Cc1ccc(C2C3=C(CC(C)(C)CC3=O)N=C3c4ccccc4C(=O)C32)cc1 (stereo not given) | – | inconclusive: -35% | –
Cc1cc(OCC(O)CNC(C)c2ccccc2)ccc1C(C)C (stereo not given) | – | inconclusive: -62% | –
O=C(Nc1cc([N+](=O)[O-])ccc1O)c1cccc(C(=O)Nc2cc([N+](=O)[O-])ccc2O)c1 | – | inconclusive: 105% | –
O=C(CSc1nccc(=O)[nH]1)c1c[nH]c2ccccc12 | – | inconclusive: 9.28% | –
Cc1cc(N/N=C/c2ccc(O)cc2O)nc(N2CCOCC2)n1 | – | inactive: -0.596% | –
Cc1c(C(=O)Nc2ccccc2)sc2nc(-c3ccccc3)cn12 | inconclusive: 29100 nM [falling, single point] | – | –
COc1ccc(CNC(=O)COC(=O)CCc2nc3ccccc3c(=O)[nH]2)cc1 | – | inconclusive: 44.8% | –
Cc1ccc(S(=O)(=O)N2CCOCC2)cc1NC(=O)CSc1ncccn1 | inconclusive: 1640 nM [activator, full curve] | – | –
Cc1ccc(S(=O)(=O)N2CCC(C(=O)OC3CCOC3=O)CC2)cc1C (stereo not given) | inconclusive: 8.2 nM [rising, full curve, poor fit] | – | –
COCCCNC(=S)Nc1ccc2nc(N3CCOCC3)cc(C)c2c1 | – | inactive: 1.62% | –
CC1CCC(NC(=O)C2CCC(CNS(=O)(=O)c3cccc4cccnc34)CC2)CC1 (stereo not given) | inconclusive: 4110 nM [falling, full curve, poor fit] | – | –
Cc1ccc(OCCn2cnc3c2c(=O)n(C)c(=O)n3C)cc1 | – | inconclusive: 178% | –
C/C(=N\NC(N)=S)C12CC3CC(CC(C3)C1)C2 | inconclusive: 6510 nM [falling, single point] | – | –
CC1=NC(C)(C)Cc2c(C)cccc21 | – | inconclusive: -22.8% | –
COc1ccc(CCNc2c([N+](=O)[O-])ncn2C)cc1OC | – | inconclusive: -2.96% | –
CCN(CC)S(=O)(=O)c1ccc(C(=O)N(c2ccccc2)C2C=CS(=O)(=O)C2)cc1 (stereo not given) | – | inconclusive: -13.5% [at 9.22 µM] | –
Cc1n[nH]c(C)c1CCC(=O)N/N=C/c1c[nH]c2ccccc12 | – | inconclusive: -19.2% | –
Cn1c(=O)c2c(nc(Oc3ccccn3)n2C)n(C)c1=O | – | inconclusive: -38.1% | –
CC(C(=O)N1CCN(C2c3ccccc3-c3ccccc32)CC1)N1C(=O)c2ccccc2C1=O (stereo not given) | – | inconclusive: -21.3% | –
Cc1ccc(-c2nnc(N3CCOCC3)c3ccccc23)cc1S(=O)(=O)NCC1CCCO1 (stereo not given) | inconclusive: 1030 nM [activator, full curve, poor fit] | – | –
Cc1ccccc1N(C(=O)c1snc(C(N)=O)c1N)C(C(=O)NC1CCCC1)c1ccco1 (stereo not given) | – | inconclusive: 18.5% | –
Cc1ccc(C)c2[nH]c(=O)c(CCNC(=O)c3ccc(S(=O)(=O)N4CCCC4)cc3)cc12 | active: 13000 nM | – | –
